According to patent US20240390531A1 (IMAGINAB, published 2024):
These are yes or no findings as the source states them, for the method shown. Binding calls can cover weak binding; strength is not graded here.

Target: cynomolgus-FAP (cynomolgus)
Test: ELISA, cross-reactivity (FIG. 92)

B1: IAB16M2-43 (other)
chain: QVQLQESGPGLVKPSETLSLTCTVSGFSLTNYDINWIRQPPGKGLEWIGLIWTGGGTNYNPSLKSRVTISKDTSKNQFSLKLSSVTAADTAVYYCVRGGPLVWYALDYWGQGTLVTVSSGSTSGGGSGGGSGGGGSSDIQMTQSPSSLSASVGDRVTITCKASQDVSTAVAWYQQKPGKAPKLLIYSASYRYTGVPSRFSGSGSGTDFTFTISSLQPEDIATYYCQQHYSNPRTFGGGTKVEIKEPKSSDKTHTCPPCPPCGGGSSGGGSGGQPREPQVYTLPPSREEMTKNQVSLTCLVKGFYPSDIAVEWESNGQPENNYKTTPPVLDSDGSFFLYSKLTVDKSRWQQGNVFSCSVMHEALHNHYTQKSLSLSPG
Question: With B1 as the binder, how does the binding read?
Answer: The binding was “binds”.
